Results from patent US7655465B2, “Methods for ex vivo propagation of somatic hair follicle stem cells” (Massachusetts Institute of Technology, priority 2004, dated 2010).
Some of these results come from one statement about several compounds together.

Tested on: mouse whisker follicle epithelial cells
Assay: Outgrowth and cell counts of purine-supplemented mouse whisker hair follicle cultures
Format: cell-based
Settings: cell counts seven days after transfer of confluent primary cultures to 25-cm^2 flasks; 400 uM purine

O=c1[nH]c(=O)c2[nH]cnc2[nH]1 [Xn, xanthine]
Fold more cells than cultures receiving no purine supplement or Xs: 5- to 6 fold
